Test results as given in PubChem BioAssay AID2417 (National Center for Advancing Translational Sciences (NCATS), 2010).
Out of some 140,000 compounds screened, about 4,300 (3.1%) were called active. This list was built around the results that the source calls inconclusive (neither active nor inactive); the mix of calls is not that of the screen.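 The calls were made as follows: active = readout at or below -70, meaning at least 70% loss of cells showing the perinucleolar compartment, a nuclear body marking cancer cells; inconclusive = readout between -30 and a set limit; inactive = the rest.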

Test: High Content Assay for Compounds that inhibit the Assembly of the Perinucleolar Compartment;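 also: plate controls were DMSO wells for no effect and camptothecin positive control wells for full effect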
Conditions: PC3M PTB-GFP, PNC prevalence imaging, 16 h; at 10 µM; active compounds read low
In short: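 PC3M cells stably expressing PTB-GFP, 750–1000 cells/well, treated 16 h at 37 °C with compound (23 nl of library stock), in duplicate. After paraformaldehyde fixation and Hoechst stain, imaged at 20x; PNC prevalence scored by image analysis.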
In the case of COc1cccc(-c2nc3ccccc3c(=O)n2NC(=O)c2cccnc2Cl)c1, the activity change (PNC), negative = inhibition is reported as inconclusive: -35.1%.
For CCOc1oc(-c2ccc(OC)cc2)nc1C(F)(F)F, the activity change (PNC), negative = inhibition was inconclusive: -39.2%.
With Cc1ccc(N2C(=O)c3sc4nnc(C)c(=O)n4c3C2=O)cc1 the activity change (PNC), negative = inhibition was inactive: 15.4%.
For CCc1ccccc1NC(=O)CSc1nnc([C@@H](NC(=O)OC(C)(C)C)C(C)C)o1, the activity change (PNC), negative = inhibition was inconclusive: -52.3%.
With COC(=O)c1ccsc1NC(=O)CSc1nnnn1Cc1ccccc1 the activity change (PNC), negative = inhibition was inactive: 23.4%.
With CCOc1cc2c3c(c1)C1(OCCO1)C(=O)N3C(C)(C)CC2C (configuration not stated) the activity change (PNC), negative = inhibition was inactive: 68%.
For CN(C(=O)c1ccccn1)c1nnc(-c2cnccn2)s1, the activity change (PNC), negative = inhibition was inconclusive: -58.3%.
For Cc1cc(SCC(=O)OCC(=O)NC(C)c2ccccc2)c(C)cc1Br (configuration not stated), the activity change (PNC), negative = inhibition was inactive: 21.7%.
For CCCCCOc1ccc(C(=O)C(c2ccccc2)N2CCOCC2)cc1 (configuration not stated), the activity change (PNC), negative = inhibition was inconclusive: -32.5%.
In the case of C=CCOC(=O)Nc1c(C(=O)OC)[nH]c2ccc(Cl)cc12, the activity change (PNC), negative = inhibition is reported as inactive: -11%.
For Cc1[nH]c(=O)[nH]c(=O)c1CSc1nnc(CCCCCNC(=O)OC(C)(C)C)o1, the activity change (PNC), negative = inhibition was inactive: 10.2%.
In the case of Cc1cc(C)n(CCC(=O)N/N=C/c2ccc(O)cc2O)n1, the activity change (PNC), negative = inhibition is reported as inactive: 0.732%.
In the case of Cc1ccc(NC(=S)NCc2ccc3[nH]c4c(c3c2)CCCC4)cc1, the activity change (PNC), negative = inhibition is reported as inactive: 14.5%.
With O=C1CC(c2ccco2)CC2=C1C=Nc1ccccc1N2 (configuration not stated) the activity change (PNC), negative = inhibition was inconclusive: -38%.
With Cc1ccc(O)c(C(=O)c2cnc3c(c2)COc2ccc(C)cc2-3)c1 the activity change (PNC), negative = inhibition was inconclusive: -43.5%.
With N#Cc1c2c(nc(N)c1-c1ccccc1)CCCCC2 the activity change (PNC), negative = inhibition was inconclusive: -54.3%.
In the case of O=C(/C=C/c1ccc(Br)o1)NC(c1ccccc1)c1ccccc1, the activity change (PNC), negative = inhibition is reported as inconclusive: -41.7%.
In the case of CCOc1ccc(CN2CCCN(C)CC2)cc1, the activity change (PNC), negative = inhibition is reported as inconclusive: -79.7%.
In the case of CCCCOC(=O)c1ccc(NC(=O)CSc2nncn2C)cc1, the activity change (PNC), negative = inhibition is reported as inactive: 53.7%.
For CC(C)NC(=O)COC(=O)c1ccccc1Oc1ccccc1, the activity change (PNC), negative = inhibition was inconclusive: -34.3%.
With CCCCN(CC)C(=O)Cc1cn(C)c2ccccc12 the activity change (PNC), negative = inhibition was inactive: 0.405%.
With Cc1cccc(Oc2cc([N+](=O)[O-])cc3c2C(=O)Nc2ccccc2O3)c1 the activity change (PNC), negative = inhibition was active: -82.7%.
For CCn1nc(C(=O)NNC(=O)COc2ccc(OC)cc2)c2ccccc2c1=O, the activity change (PNC), negative = inhibition was inconclusive: -33.8%.
In the case of CC(=O)Nc1nc(-c2ccc(Br)s2)cs1, the activity change (PNC), negative = inhibition is reported as inconclusive: -38%.
With c1ccc(CNc2ncnc3ccccc23)cc1 the activity change (PNC), negative = inhibition was inactive: 5.83%.
In the case of Nc1c(C(=O)NCC2CCCO2)sc(=S)n1-c1ccccc1 (configuration not stated), the activity change (PNC), negative = inhibition is reported as inactive: -3.2%.
With CCC(=O)N1CCc2cc(S(=O)(=O)NCCCN(CC)Cc3ccccc3)ccc21 the activity change (PNC), negative = inhibition was inactive: -16.1%.
With COc1cccc(C(=O)Nc2cccc(C(C)=O)c2)c1 the activity change (PNC), negative = inhibition was inactive: 17.6%.
In the case of CC(=O)OC[C@H]1O[C@@H](O/N=C/C[C@@H]2C=C[C@H](OC(C)=O)[C@@H](COC(C)=O)O2)[C@H](OC(C)=O)[C@@H](OC(C)=O)[C@@H]1OC(C)=O, the activity change (PNC), negative = inhibition is reported as inactive: 29.2%.
For C/C=C/c1ccc(OCC(=O)OCc2csc(Nc3ccc(C)cc3)n2)c(OC)c1, the activity change (PNC), negative = inhibition was inconclusive: -53.3%.
In the case of CCCOc1ccc(N2C(=O)CC(N3CCC(O)(c4cccc(C(F)(F)F)c4)CC3)C2=O)cc1 (configuration not stated), the activity change (PNC), negative = inhibition is reported as inactive: -27.6%.
With Cc1ccc2cc3cc(C(=O)NCCC(C)C)oc3nc2c1 the activity change (PNC), negative = inhibition was inconclusive: -68.1%.
For O=C(C[n+]1cccc2ccccc21)c1ccccc1, the activity change (PNC), negative = inhibition was inconclusive: -68.4%.
For Cn1c(Cc2ccccc2)nnc1SCC(=O)Nc1ccccc1N1CCOCC1, the activity change (PNC), negative = inhibition was inactive: 21.3%.
In the case of COc1cccc(NC(=O)CCS(=O)(=O)c2cccs2)c1, the activity change (PNC), negative = inhibition is reported as inconclusive: -47.5%.
With CC(C)NC(=O)CSc1nnc(-c2ccc(C(C)(C)C)cc2)n1C the activity change (PNC), negative = inhibition was active: -100%.
For COC(=O)CCCCC(=O)C1C(=O)CC(C)(C)C(C(=O)OC)C1=O (configuration not stated), the activity change (PNC), negative = inhibition was inconclusive: -36.1%.
For Cc1c(-c2ccco2)[n+](=O)c2c(n1[O-])CCCCC2, the activity change (PNC), negative = inhibition was inconclusive: -39.1%.
For CCN(CC)C(=O)c1cn(C)c2ccc(S(=O)(=O)N(CC)CC)cc2c1=O, the activity change (PNC), negative = inhibition was inconclusive: -49%.
With CSc1nnc(Cn2c(=O)sc3ccccc32)n1-c1ccccc1 the activity change (PNC), negative = inhibition was active: -106%.
For Cn1c(Cc2ccccc2)nnc1SCC(=O)N1CCOCC1, the activity change (PNC), negative = inhibition was inconclusive: -35.9%.
For C[C@@H]1NC(=O)c2cc([N+](=O)[O-])cc(I)c2NCC[C@@H](C(N)=O)NC(=O)[C@H](CC(N)=O)NC1=O, the activity change (PNC), negative = inhibition was active: -103%.
In the case of CC1CCN(CCCCOc2ccccc2-c2ccccc2)CC1, the activity change (PNC), negative = inhibition is reported as inconclusive: -57%.
For COc1ccc(OCC(=O)NNC(=O)c2cccs2)cc1, the activity change (PNC), negative = inhibition was inactive: 53.3%.
In the case of Cc1c(Br)c(C(F)(F)F)nn1CC(=O)NCCN1CCOCC1, the activity change (PNC), negative = inhibition is reported as inconclusive: -38.7%.
In the case of CC(Oc1ccc(NC(=O)c2ccco2)cc1)C(=O)N1c2ccccc2CC1C (configuration not stated), the activity change (PNC), negative = inhibition is reported as inconclusive: -32.1%.
In the case of O=C(CCCCCNC(=O)c1ccccc1)N/N=C/c1ccccc1O, the activity change (PNC), negative = inhibition is reported as inactive: 35.1%.
For Cc1cc([N+](=O)[O-])nn1CCCC(=O)N1CCN(c2ccc(F)cc2)CC1, the activity change (PNC), negative = inhibition was active: -119%.
With O=C(CSCc1ccccc1)N1CCc2ccccc21 the activity change (PNC), negative = inhibition was inconclusive: -57%.
For Cc1cc(NC(=O)Cn2nc3c(cc2=O)CCCC3)ccc1Br, the activity change (PNC), negative = inhibition was inconclusive: -71%.
For CC(=O)Nc1nonc1NC(=O)CSc1ccccn1, the activity change (PNC), negative = inhibition was inconclusive: -30.5%.
For Cn1c(-c2c(N)n(CCc3ccccc3)c3nc4ccccc4nc23)nc2ccccc21, the activity change (PNC), negative = inhibition was inactive: -10.5%.
With CCN(C(=O)c1ccco1)c1nc(CC(=O)Nc2ccc(Cl)cc2)cs1 the activity change (PNC), negative = inhibition was inactive: 10.8%.
For Cc1ccc(OCc2nnc(SCC(=O)Nc3cc(C)on3)n2C)cc1, the activity change (PNC), negative = inhibition was inconclusive: -51.5%.
With CCC1(c2ccc(Cl)cc2)NC(=S)N(c2ccccc2)N1 (configuration not stated) the activity change (PNC), negative = inhibition was inactive: -10.1%.
In the case of CCN(CC)S(=O)(=O)c1cccc(C(=O)N[C@H](C(=O)OCC(=O)Nc2ccccc2)C(C)C)c1, the activity change (PNC), negative = inhibition is reported as inactive: -15.2%.
For COc1ccc(OC)c(S(=O)(=O)N2CCC(C(=O)Nc3ccc(C)c(C)c3)CC2)c1, the activity change (PNC), negative = inhibition was inconclusive: -75.4%.
With Cc1noc(C)c1CN1C(=O)NC(Cc2ccccc2)(Cc2ccccc2)C1=O the activity change (PNC), negative = inhibition was active: -107%.
With CCOc1ccc(S(=O)(=O)NCc2ccccn2)cc1 the activity change (PNC), negative = inhibition was active: -111%.
For CCOC(=O)N1CCC(NC(=O)c2cc3c(=O)n(C)c4ccccc4c3n2C)CC1, the activity change (PNC), negative = inhibition was inconclusive: -43.6%.
With O=C(ONC1=NCCCCC1)c1ccc(Cl)cc1 the activity change (PNC), negative = inhibition was inconclusive: -34.1%.
In the case of Cc1ccc(Cn2c(=O)n(-c3ccccc3)c(=O)c3ccc(C(=O)NCc4ccco4)cc32)cc1, the activity change (PNC), negative = inhibition is reported as inactive: 31.1%.
In the case of COc1ccc(CNC(=O)Cc2csc(Nc3nc(=S)[nH]c4ccccc34)n2)cc1, the activity change (PNC), negative = inhibition is reported as inconclusive: -40.8%.
With CCOC(=O)C1CCCN(C(=O)c2cn(CC)c3ccc(S(=O)(=O)N(C)C)cc3c2=O)C1 (configuration not stated) the activity change (PNC), negative = inhibition was inconclusive: -51.6%.
With Cc1ccc(Cl)cc1NC(=O)COC(=O)c1ccc(COc2ccc3c(C)cc(=O)oc3c2)cc1 the activity change (PNC), negative = inhibition was active: -113%.
For COC(=O)c1ccc(COC(=O)c2ccc(SC)cc2OC)cc1, the activity change (PNC), negative = inhibition was inactive: -7.98%.
With CCN1CCN(c2ccc(NC(=O)COc3ccccc3Cl)cc2)CC1 the activity change (PNC), negative = inhibition was inconclusive: -43.6%.
For CCn1c(SCc2nc3ccccc3s2)nnc1-c1cccs1, the activity change (PNC), negative = inhibition was inconclusive: -74.9%.
For CCCNC(=O)N(C)c1nncnc1C(=O)NC, the activity change (PNC), negative = inhibition was active: -100%.
With COc1ccnc(CSC(N)=Nc2cccc(C(F)(F)F)c2)c1 the activity change (PNC), negative = inhibition was inactive: 18.2%.
For CC(C(=O)N1CCc2ccccc21)N1CCc2ccccc2C1 (configuration not stated), the activity change (PNC), negative = inhibition was inconclusive: -34.6%.
With CC(=O)C1=C(C)NC(SCC(=O)c2ccc(Cl)cc2Cl)=C(C#N)C1c1ccco1 (configuration not stated) the activity change (PNC), negative = inhibition was inconclusive: -45.2%.
For COC(=O)c1n[nH]c2ccccc12, the activity change (PNC), negative = inhibition was inconclusive: -38.8%.
With O=C(c1cc(-c2ccc(O)cc2)on1)N1CCc2ccccc2C1 the activity change (PNC), negative = inhibition was inactive: 14.5%.
For CCOC(=O)c1ccccc1NC(=O)N1CCn2c(C)ccc2C1CC (configuration not stated), the activity change (PNC), negative = inhibition was inconclusive: -36.5%.
In the case of CCC(=O)Nc1ccc(NC(=S)NC(=O)Cc2ccccc2)cc1, the activity change (PNC), negative = inhibition is reported as inactive: -20.8%.
In the case of O=C(O)CSc1nnc(-c2ccccc2)o1, the activity change (PNC), negative = inhibition is reported as inactive: 10%.
In the case of CCN1C(=O)c2cccc3c(NC(=O)c4ccc(S(=O)(=O)N5CCOCC5)cc4)ccc1c23, the activity change (PNC), negative = inhibition is reported as inconclusive: -57.3%.
With Cc1cc(Oc2ccc(Cl)cc2)nc(-c2ccccc2O)n1 the activity change (PNC), negative = inhibition was inconclusive: -33.4%.
With FC(F)(F)c1nnc(-c2ccccc2)nc1Sc1ccc(Cl)cc1 the activity change (PNC), negative = inhibition was inconclusive: -31.1%.
With COc1ccc(C(=S)N2CCCC2)cc1C the activity change (PNC), negative = inhibition was inactive: 23.4%.
With COCCn1c(SC(C)C(=O)Nc2ncc(Cl)cc2Cl)nc2ccccc21 (configuration not stated) the activity change (PNC), negative = inhibition was active: -103%.
In the case of O=C(Cn1c(-c2ccccc2)noc1=O)Nc1ccc(S(=O)(=O)N2CCOCC2)cc1, the activity change (PNC), negative = inhibition is reported as inactive: 18.6%.
For CCCC(=O)Nc1cc(C(=O)O)ccc1S(=O)(=O)c1ccc(C)cc1, the activity change (PNC), negative = inhibition was active: -113%.
With Cn1c(=O)oc2cc(S(=O)(=O)NCc3ccncc3)ccc21 the activity change (PNC), negative = inhibition was inactive: 34.5%.
For Cc1ccc(NC(=O)CN2C(=O)N/C(=C/c3ccc(N4CCOCC4)cc3)C2=O)cc1, the activity change (PNC), negative = inhibition was inconclusive: -31.2%.
For CCOc1cc(CNCCSc2nnnn2C)cc(Br)c1OCc1ccc(F)cc1, the activity change (PNC), negative = inhibition was inconclusive: -38.2%.
For CCSc1nc2ccccc2n1C(=O)/C=C\c1ccc(OC)c(OC)c1, the activity change (PNC), negative = inhibition was inactive: 42.5%.
For CCSc1nnc(NC(=O)c2ccccn2)s1, the activity change (PNC), negative = inhibition was inactive: 7.58%.
With Cn1nccc1CNC(=O)c1c(Cl)cnn1C the activity change (PNC), negative = inhibition was inactive: 35.5%.
In the case of COc1ccc(C(=O)NCCc2nnc(SCC(=O)Nc3ccccc3)n2C)cc1, the activity change (PNC), negative = inhibition is reported as inconclusive: -62.3%.
In the case of CN(CC(=O)NCc1cccnc1)S(=O)(=O)c1ccc2c(c1)c(=O)n(C)c(=O)n2C, the activity change (PNC), negative = inhibition is reported as inconclusive: -54.1%.
